Laboratory results reported in the supplement of paper PMC10849652.
The other results are listed elsewhere or left out. Residues, ends and D or L forms follow the SMILES beside them. *: point of attachment. Cbz = O=C(OCc1ccccc1)*

The chains behind the UniProt entries cited, without tags or fusion partners. Where a name states a change or a piece, a line headed by the entry shows the natural chain unless it says otherwise.
UniProt Q9Y5U9: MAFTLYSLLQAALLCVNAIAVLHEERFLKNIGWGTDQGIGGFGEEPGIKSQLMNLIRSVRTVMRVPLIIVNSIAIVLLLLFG
UniProt Q9Y6M1: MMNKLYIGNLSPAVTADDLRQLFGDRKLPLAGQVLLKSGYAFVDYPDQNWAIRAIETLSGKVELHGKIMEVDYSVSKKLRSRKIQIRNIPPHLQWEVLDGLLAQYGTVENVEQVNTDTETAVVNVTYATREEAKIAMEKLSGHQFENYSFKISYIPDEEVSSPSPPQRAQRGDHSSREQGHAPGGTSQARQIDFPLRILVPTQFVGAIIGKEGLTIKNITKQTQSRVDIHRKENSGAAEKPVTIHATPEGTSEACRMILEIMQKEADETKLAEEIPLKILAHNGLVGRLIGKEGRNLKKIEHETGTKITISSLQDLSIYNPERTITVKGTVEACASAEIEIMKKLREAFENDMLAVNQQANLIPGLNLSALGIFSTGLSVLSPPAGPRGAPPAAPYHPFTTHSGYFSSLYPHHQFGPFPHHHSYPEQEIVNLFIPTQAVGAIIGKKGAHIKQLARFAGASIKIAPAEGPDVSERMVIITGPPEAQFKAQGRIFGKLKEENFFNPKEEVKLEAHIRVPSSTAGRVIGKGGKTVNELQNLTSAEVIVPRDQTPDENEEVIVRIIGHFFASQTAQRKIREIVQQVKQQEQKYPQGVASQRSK
UniProt P22692: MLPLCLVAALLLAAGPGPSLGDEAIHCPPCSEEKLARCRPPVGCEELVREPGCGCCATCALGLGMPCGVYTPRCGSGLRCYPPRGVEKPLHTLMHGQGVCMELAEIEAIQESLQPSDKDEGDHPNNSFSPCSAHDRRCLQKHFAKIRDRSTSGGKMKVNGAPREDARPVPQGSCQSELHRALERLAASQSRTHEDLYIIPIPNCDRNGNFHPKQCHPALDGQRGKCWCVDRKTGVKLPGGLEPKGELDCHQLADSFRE
UniProt Q12894: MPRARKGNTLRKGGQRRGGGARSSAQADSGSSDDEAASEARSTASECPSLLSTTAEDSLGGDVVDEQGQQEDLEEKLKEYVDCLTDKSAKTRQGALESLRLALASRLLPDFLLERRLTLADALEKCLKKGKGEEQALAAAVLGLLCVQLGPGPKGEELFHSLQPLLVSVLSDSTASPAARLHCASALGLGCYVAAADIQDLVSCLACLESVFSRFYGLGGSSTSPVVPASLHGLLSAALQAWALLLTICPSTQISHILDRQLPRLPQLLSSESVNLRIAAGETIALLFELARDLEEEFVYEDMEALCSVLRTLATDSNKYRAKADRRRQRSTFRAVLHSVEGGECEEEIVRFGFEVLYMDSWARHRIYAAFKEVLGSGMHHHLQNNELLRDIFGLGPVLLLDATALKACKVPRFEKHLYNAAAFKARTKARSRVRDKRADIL
UniProt Q9NVH2, whole entry, looked up: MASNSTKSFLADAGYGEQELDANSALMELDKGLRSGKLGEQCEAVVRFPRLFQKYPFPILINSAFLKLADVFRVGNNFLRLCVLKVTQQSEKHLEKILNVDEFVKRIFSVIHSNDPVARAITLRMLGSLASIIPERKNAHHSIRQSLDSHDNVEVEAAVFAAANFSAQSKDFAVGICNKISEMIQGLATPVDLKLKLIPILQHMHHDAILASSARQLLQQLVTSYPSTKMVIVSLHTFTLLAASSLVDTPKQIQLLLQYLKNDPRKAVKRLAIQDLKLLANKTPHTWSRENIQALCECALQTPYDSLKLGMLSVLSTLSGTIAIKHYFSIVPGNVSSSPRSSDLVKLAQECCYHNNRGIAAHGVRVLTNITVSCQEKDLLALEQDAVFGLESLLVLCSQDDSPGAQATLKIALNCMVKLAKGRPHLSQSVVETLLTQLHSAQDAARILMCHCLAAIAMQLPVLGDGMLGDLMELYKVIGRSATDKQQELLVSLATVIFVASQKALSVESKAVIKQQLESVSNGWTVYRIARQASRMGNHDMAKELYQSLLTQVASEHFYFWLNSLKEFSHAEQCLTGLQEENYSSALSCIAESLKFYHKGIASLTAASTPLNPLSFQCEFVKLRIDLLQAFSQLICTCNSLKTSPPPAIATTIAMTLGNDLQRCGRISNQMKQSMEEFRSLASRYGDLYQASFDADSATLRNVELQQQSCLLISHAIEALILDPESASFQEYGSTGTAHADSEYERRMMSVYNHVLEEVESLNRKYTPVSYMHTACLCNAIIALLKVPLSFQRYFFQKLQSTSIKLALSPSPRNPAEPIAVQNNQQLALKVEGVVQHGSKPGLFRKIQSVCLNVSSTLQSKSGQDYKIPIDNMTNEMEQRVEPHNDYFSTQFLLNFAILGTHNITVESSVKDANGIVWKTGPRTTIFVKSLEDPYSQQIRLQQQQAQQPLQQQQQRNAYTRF
UniProt Q96LU5: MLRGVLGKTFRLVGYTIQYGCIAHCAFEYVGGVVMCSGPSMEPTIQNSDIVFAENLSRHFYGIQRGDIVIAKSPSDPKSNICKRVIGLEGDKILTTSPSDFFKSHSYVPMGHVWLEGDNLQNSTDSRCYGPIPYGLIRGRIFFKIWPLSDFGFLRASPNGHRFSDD
UniProt P49441: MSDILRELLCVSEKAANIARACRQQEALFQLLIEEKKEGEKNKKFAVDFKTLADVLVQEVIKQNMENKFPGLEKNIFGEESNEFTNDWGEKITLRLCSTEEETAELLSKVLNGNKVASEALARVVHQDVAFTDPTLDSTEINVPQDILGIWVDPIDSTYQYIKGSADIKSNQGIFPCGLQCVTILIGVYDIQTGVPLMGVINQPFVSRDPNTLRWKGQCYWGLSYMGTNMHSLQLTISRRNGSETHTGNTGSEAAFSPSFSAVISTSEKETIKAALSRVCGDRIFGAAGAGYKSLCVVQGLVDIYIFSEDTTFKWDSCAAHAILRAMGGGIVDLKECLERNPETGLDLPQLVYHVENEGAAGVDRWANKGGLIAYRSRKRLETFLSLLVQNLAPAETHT
UniProt Q13123, whole entry, looked up: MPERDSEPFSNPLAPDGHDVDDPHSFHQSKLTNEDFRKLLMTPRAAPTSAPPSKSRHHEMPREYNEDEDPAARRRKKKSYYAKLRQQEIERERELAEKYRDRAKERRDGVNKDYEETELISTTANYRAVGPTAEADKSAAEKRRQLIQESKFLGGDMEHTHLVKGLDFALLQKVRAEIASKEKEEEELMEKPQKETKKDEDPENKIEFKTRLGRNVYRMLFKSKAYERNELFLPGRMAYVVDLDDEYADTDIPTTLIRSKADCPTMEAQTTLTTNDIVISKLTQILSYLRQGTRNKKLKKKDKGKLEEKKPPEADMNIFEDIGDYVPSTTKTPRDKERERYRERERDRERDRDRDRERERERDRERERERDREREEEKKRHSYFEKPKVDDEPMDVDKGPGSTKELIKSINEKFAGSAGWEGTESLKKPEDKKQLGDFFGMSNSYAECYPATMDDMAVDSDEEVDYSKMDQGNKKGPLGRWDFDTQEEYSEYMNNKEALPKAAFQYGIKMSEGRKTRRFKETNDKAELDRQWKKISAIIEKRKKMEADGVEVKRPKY

How the values were obtained:
Assay in all cases: log2 fold change, soluble protein after heating vs DMSO (PISA); higher = thermal stabilisation; K562 cells, 10 uM, 30 min; active = over 0.2 and 3.5 SD of the protein, either way, in both replicates (recomputed)
[1] = compound: C#Cc1cccc(Nc2ncnc3cc(OCCOC)c(OCCOC)cc23)c1 [erlotinib]
Summary of the method: (§1)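 For each measurement, 10 μM compound was applied for 30 min to K562 cells at 2×10^6 cells/mL. Aliquots were heated for 3 min across 48°C-58°C, pooled, and extracted in PBS with 0.5% NP-40 at 4°C; the supernatant after 21,000xg for 90 min was soluble protein. This was quantified by TMTpro 16plex LC-MS/MS with channel sums equalised, and thermal stability was reported relative to control samples from duplicates, on a log2 fold-change scale.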

[2] = compound: C/C(=N\NC(=O)C1=CC(=CC=C1)S(=O)(=O)N2CCOCC2)/C3=C(C=CC(=C3)Cl)O
Summary of the method: as §1

[3] = compound: C1=CC(=C(C=C1Cl)C2=NC3=NC=CN=C3C(=N2)NC4=CC=NC=C4)F
Summary of the method: as §1

[4] = compound: C1=CC(=CC=C1C2=NC3=C(N2)C=C(C=C3)C(=O)N)OC4=CC=C(C=C4)Cl
Summary of the method: as §1

[5] = compound: C1=CC2=C(C=CC(=C2)/C=C\3/C(=O)NC(=NCC4=CC=CS4)S3)N=C1
Summary of the method: as §1

[6] = compound: C1=CC2=NC=CN=C2C=C1/C=C/3\C(=O)NC(=O)S3
Summary of the method: as §1

[7] = compound: C1=CC=C(C=C1)C2=NC(=C(N2)C3=CC=NC=C3)C4=CC(=C(C=C4)Cl)O
Summary of the method: as §1

[8] = compound: C1=CC=C2C(=C1)C3=NNC4=CC=CC(=C43)C2=O
Summary of the method: as §1

[9] = compound: C1CCN(C1)C(=O)NC2=CC=CC(=C2)NC3=NC=C(C(=N3)NCCC4=CN=CN4)Br
Summary of the method: as §1

[10] = compound: C1CN(CCC1(CC2=CC=C(C=C2)Cl)N)C3=NC=NC4=C3C=CN4
Summary of the method: as §1

[11] = compound: C1COCCN1CCN2C3=CC=CC=C3N=C2NC(=O)C4=CC(=CC=C4)[N+](=O)[O-] [IRAK-1-4 Inhibitor I]
Summary of the method: as §1

[12] = compound: C=CC(=O)N1CCC[C@@H](n2nc(-c3ccc(Oc4ccccc4)cc3)c3c(N)ncnc32)C1 [ibrutinib]
Summary of the method: as §1

[13] = compound: CC(=O)c1cnc2ccc(-c3cc(Cl)c(O)c(Cl)c3)nc2c1N[C@H]1CC[C@H](CN(C)C)CC1
Summary of the method: as §1

[14] = compound: CC(C)(C)Cn1c(N)nc2ccc(-c3[nH]c(C(C)(C)C)nc3-c3ccc(F)cc3)nc21 [ralimetinib]
Summary of the method: as §1

[15] = compound: CC(C)(O)CC(=O)NCCn1ccc2ncnc(Nc3ccc(Oc4cccc(C(F)(F)F)c4)c(Cl)c3)c21
Summary of the method: as §1

[16] = compound: CC(C)C1=C2N=C(C=C(N2N=C1)NCC3=CC=CC=C3)NCCCCCCN
Summary of the method: as §1

[17] = compound: CC(C)C[C@@H](C=O)NC(=O)[C@H](CC(C)C)NC(=O)[C@H](CC(C)C)NC(=O)OCc1ccccc1
Summary of the method: as §1

[18] = compound: CC(C)N(C[C@H]1O[C@@H](n2cnc3c(N)ncnc32)[C@H](O)[C@@H]1O)[C@H]1C[C@@H](CCc2nc3cc(C(C)(C)C)ccc3[nH]2)C1 [pinometostat]
Summary of the method: as §1

[19] = compound: CC1=C(C2=C(C=C1)C(=O)C3=CC=CC=C3N2CCCN)C
Summary of the method: as §1

Target	log2 fold change [1]	log2 fold change [2]	log2 fold change [3]	log2 fold change [4]	log2 fold change [5]	log2 fold change [6]	log2 fold change [7]	log2 fold change [8]	log2 fold change [9]	log2 fold change [10]	log2 fold change [11]	log2 fold change [12]	log2 fold change [13]	log2 fold change [14]	log2 fold change [15]	log2 fold change [16]	log2 fold change [17]	log2 fold change [18]	log2 fold change [19]
IER3IP1 (UniProt Q9Y5U9)	inactive: -0.065	inactive: 0.082	inactive: -0.11	inactive: -0.006	inactive: -0.111	inactive: 0.167	inactive: 0.038	inactive: -0.061	inactive: -0.052	inactive: 0.023	inactive: 0.079	inactive: -0.08	inactive: 0.106	inactive: 0.113	inactive: 0.158	inactive: 0.106	inactive: -0.194	inactive: -0.043	inactive: -0.027
IGF2BP2 (UniProt Q9Y6M1)	inactive: -0.013	inactive: -0.083	inactive: -0.255	inactive: -0.015	inactive: 0.158	inactive: 0.014	inactive: 0.007	inactive: 0.075	inactive: 0.057	inactive: 0.075	inactive: -0.168	inactive: 0.048	inactive: -0.011	inactive: 0.209	inactive: 0.037	inactive: -0.249	inactive: 0.106	inactive: 0.477	inactive: -0.054
IGFBP4 (UniProt P22692)	inactive: -0.03	inactive: -0.14	inactive: 0.023	inactive: 0.093	inactive: -0.124	inactive: 0.178	inactive: -0.051	inactive: -0.217	inactive: 0.108	inactive: 0.076	inactive: 0.011	inactive: -0.015	inactive: 0.171	inactive: -0.04	inactive: 0.047	inactive: 0.028	inactive: 0.054	inactive: 0.032	inactive: -0.09
IFRD2 isoform 2 (UniProt Q12894)	inactive: 0.204	inactive: -0.109	inactive: 0.003	inactive: 0.084	inactive: 0.048	inactive: 0.082	inactive: -0.051	inactive: 0.118	inactive: 0.302	inactive: 0.04	inactive: 0.141	inactive: 0.063	inactive: 0.369	inactive: -0.045	inactive: 0.013	inactive: 0.07	inactive: 0.019	inactive: 0.144	active: -1.69
INTS7 (UniProt Q9NVH2)	inactive: 0.39	inactive: 0.067	inactive: -0.016	inactive: 0.046	inactive: -0.175	inactive: 0.036	inactive: -0.081	inactive: 0.022	inactive: -0.091	inactive: -0.009	inactive: 0.021	inactive: -0.104	inactive: 0.029	inactive: 0.028	inactive: -0.085	inactive: -0.146	inactive: 0.077	inactive: -0.136	inactive: 0.048
IMMP1L (UniProt Q96LU5)	inactive: 0.053	inactive: -0.018	inactive: 0.01	inactive: -0.017	inactive: 0.104	inactive: -0.022	inactive: -0.084	inactive: -0.046	inactive: 0.041	inactive: 0.013	inactive: 0.006	inactive: 0.043	inactive: 0.002	inactive: 0.031	inactive: 0.03	inactive: 0.026	inactive: 0.112	inactive: -0.033	inactive: 0.199
INPP1 (UniProt P49441)	inactive: 0.014	inactive: 0.006	inactive: 0.073	inactive: 0.059	inactive: 0.042	inactive: -0.01	inactive: 0.005	inactive: 0.044	inactive: 0.01	inactive: -0.101	inactive: -0.001	inactive: 0.023	inactive: -0.003	inactive: -0.108	inactive: -0.039	inactive: 0.016	inactive: -0.007	inactive: -0.054	inactive: -0.03
IK (UniProt Q13123)	inactive: 0.049	inactive: 0	inactive: -0.069	inactive: 0	inactive: 0.055	inactive: -0.022	inactive: -0.016	inactive: -0.11	inactive: -0.004	inactive: -0.065	inactive: -0.139	inactive: -0.067	inactive: -0.06	inactive: -0.007	inactive: 0.054	inactive: 0.031	inactive: 0.239	inactive: 0.038	inactive: 0.148
